This note sets out measurements from article PMC5845737.

This test concerns the target EsaB (Staphylococcus aureus) (UniProt Q99WU1). The test is described as follows: SEC; final size exclusion step, 24 ml Superdex75 column, 20 mM Tris pH 7.8, 100 mM NaCl, calibrated with molecular mass standards; both purified. (Size exclusion chromatography separates by hydrodynamic size, large species first.)

These are yes or no findings as the source states them, for the method shown.

With EsaB (from UniProt Q99WU1 1-80), the binding entry is “no binding”.
